From article PMC6547440, “The HRP3 PWWP domain recognizes the minor groove of double-stranded DNA and recruits HRP3 to chromatin” (Nucleic Acids Research, 2019)

Protein sequences, listed by entry. Tags and fused reporters are not part of them. Residues count along the entry.
UniProt Q9Y3E1, 1-110: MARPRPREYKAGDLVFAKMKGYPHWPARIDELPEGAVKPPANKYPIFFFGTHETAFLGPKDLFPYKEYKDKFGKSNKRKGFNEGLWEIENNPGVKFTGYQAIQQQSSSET
UniProt Q9Y3E1, 1-110 N76A: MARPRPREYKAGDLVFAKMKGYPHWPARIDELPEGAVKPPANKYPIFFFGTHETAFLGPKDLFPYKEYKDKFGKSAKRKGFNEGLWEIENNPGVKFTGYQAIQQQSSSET
UniProt Q9Y3E1, 1-110 K77A: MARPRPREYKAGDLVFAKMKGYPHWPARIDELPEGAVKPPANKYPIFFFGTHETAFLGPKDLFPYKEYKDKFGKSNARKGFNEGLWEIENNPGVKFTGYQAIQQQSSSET
UniProt Q9Y3E1, 1-110 R78A: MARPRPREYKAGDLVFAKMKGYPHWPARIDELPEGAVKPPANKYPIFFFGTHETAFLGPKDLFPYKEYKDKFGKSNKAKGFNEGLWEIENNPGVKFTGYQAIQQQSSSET
UniProt Q9Y3E1, 1-110 K18A: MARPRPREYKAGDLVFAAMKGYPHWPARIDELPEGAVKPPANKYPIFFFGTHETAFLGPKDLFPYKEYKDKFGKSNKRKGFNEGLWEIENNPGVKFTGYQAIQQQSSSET

Tests used:
HRP3 PWWP (1-110) WT = HRP3 PWWP (1-110) WT (UniProt Q9Y3E1); test: ITC; conditions: value in figure only, ITC: 10 mM PBS pH 7.0, 50 mM NaCl, 2 mM b-ME, 20 C, recombinant protein, residues 1-110, label: 5'-FAM (MST)
HRP3 PWWP N76A = HRP3 PWWP N76A (UniProt Q9Y3E1); test: MST; conditions: affinity unchanged vs WT; MST: 50 mM KCl, 10 mM Na cacodylate pH 6.5, 2 mM DTT, 200 nM FAM-dsDNA; recombinant protein; residues 1-110; label: 5'-FAM (MST)
[1] = target: HRP3 PWWP K77 mutant K77A (UniProt Q9Y3E1); test: MST; conditions: MST: 50 mM KCl, 10 mM Na cacodylate pH 6.5, 2 mM DTT, 200 nM FAM-dsDNA, recombinant protein, residues 1-110, label: 5'-FAM (MST)
[2] = target: HRP3 PWWP R78 mutant R78A (UniProt Q9Y3E1); test: MST; conditions: MST: 50 mM KCl, 10 mM Na cacodylate pH 6.5, 2 mM DTT, 200 nM FAM-dsDNA, recombinant protein, residues 1-110, label: 5'-FAM (MST)
HRP3 PWWP K18A = HRP3 PWWP K18A (UniProt Q9Y3E1); test: MST; conditions: MST: 50 mM KCl, 10 mM Na cacodylate pH 6.5, 2 mM DTT, 200 nM FAM-dsDNA, recombinant protein, residues 1-110, label: 5'-FAM (MST)

Row | Sequence | binding result (HRP3 PWWP (1-110) WT; weaker than 16-mer-TA) | binding result (HRP3 PWWP N76A) | binding result ([1]; affinity unchanged vs WT) | binding result ([2]; affinity unchanged vs WT) | binding result (HRP3 PWWP K18A; affinity unchanged vs WT) | binding result (HRP3 PWWP (1-110) WT; TA preferred) | binding result [1] | binding result [2] | binding result (HRP3 PWWP K18A)
1 | GCGCGCGCGCGCGCGC (double strand) [16-mer-GC] | binds more weakly | binds | binds | binds | binds | – | – | – | –
2 | TATATATATATATATA (double strand) [16-mer-TA] | – | – | – | – | – | binds | binds more weakly | binds more weakly | binds more weakly

The exact form of at least one protein or probe is not confirmed. For part of these data: A weaker result is weaker than the reference pair of the same experiment. At least one verdict was read from the data and is not stated in words by the source.
